# Measured values published in PMC10823590.
# The chains behind the UniProt entries cited, without tags or fusion partners. Where a name states a change or a piece, a line headed by the entry shows the natural chain unless it says otherwise. Residues count along the entry.
# UniProt Q01638, residues 19-321: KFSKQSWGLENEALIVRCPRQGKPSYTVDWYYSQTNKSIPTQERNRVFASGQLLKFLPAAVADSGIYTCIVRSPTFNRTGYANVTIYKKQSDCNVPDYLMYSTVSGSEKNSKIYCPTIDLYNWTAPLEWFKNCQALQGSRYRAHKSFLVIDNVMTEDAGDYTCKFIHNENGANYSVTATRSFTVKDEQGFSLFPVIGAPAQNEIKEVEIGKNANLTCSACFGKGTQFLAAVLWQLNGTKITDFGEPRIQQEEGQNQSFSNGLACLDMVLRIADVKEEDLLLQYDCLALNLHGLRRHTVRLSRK
# UniProt O95760: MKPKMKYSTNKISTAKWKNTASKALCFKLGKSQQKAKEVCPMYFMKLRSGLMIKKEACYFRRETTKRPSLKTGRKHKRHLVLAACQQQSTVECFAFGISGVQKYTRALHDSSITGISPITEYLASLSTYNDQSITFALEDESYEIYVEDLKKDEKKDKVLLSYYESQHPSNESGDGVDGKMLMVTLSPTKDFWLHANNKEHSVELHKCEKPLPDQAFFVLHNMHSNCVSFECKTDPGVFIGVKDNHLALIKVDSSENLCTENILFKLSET
# No constants are given. Whether binding was seen depends on the method and setting. Binding can be weak; no strength is given.
# Target: ST2 receptor (isolated protein used in ELISA and in the fluorescence emission assay) (UniProt Q01638)
# Assay: ELISA; ELISA binding assays of IL-33 variants to ST2 or HpARI; values normalized to the binding of wild-type IL-33, n = 3
substance,measurement,value
wild-type IL-33 (interleukin-33) (from UniProt O95760) (ligand),binding,binds
